In article doi:10.1101/2021.11.02.467017:
No constants are given. Whether binding was seen depends on the method and setting. For some assays here: In cells and extracts the contact can be indirect. Some results given as binding are weak or reduced against the parent protein; the word gives no strength. For some assays here: Where a sequence is shown, tags or fusion partners need not be part of it.

The chains behind the UniProt entries cited, without tags or fusion partners. Where a name states a change or a piece, a line headed by the entry shows the natural chain unless it says otherwise. Residues count along the entry.
UniProt Q91VL8, whole entry, looked up, stated change not applied: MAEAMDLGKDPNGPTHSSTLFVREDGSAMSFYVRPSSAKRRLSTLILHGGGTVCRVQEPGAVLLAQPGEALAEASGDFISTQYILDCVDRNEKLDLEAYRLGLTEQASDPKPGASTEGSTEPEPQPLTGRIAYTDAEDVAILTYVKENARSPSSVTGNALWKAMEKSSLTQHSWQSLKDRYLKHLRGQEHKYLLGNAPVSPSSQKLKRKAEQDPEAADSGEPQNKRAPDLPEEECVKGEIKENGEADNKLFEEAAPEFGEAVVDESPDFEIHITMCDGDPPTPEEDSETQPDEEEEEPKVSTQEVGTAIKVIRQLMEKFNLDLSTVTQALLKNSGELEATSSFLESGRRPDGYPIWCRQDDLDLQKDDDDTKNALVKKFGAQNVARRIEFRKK
UniProt Q8C9X6, whole entry: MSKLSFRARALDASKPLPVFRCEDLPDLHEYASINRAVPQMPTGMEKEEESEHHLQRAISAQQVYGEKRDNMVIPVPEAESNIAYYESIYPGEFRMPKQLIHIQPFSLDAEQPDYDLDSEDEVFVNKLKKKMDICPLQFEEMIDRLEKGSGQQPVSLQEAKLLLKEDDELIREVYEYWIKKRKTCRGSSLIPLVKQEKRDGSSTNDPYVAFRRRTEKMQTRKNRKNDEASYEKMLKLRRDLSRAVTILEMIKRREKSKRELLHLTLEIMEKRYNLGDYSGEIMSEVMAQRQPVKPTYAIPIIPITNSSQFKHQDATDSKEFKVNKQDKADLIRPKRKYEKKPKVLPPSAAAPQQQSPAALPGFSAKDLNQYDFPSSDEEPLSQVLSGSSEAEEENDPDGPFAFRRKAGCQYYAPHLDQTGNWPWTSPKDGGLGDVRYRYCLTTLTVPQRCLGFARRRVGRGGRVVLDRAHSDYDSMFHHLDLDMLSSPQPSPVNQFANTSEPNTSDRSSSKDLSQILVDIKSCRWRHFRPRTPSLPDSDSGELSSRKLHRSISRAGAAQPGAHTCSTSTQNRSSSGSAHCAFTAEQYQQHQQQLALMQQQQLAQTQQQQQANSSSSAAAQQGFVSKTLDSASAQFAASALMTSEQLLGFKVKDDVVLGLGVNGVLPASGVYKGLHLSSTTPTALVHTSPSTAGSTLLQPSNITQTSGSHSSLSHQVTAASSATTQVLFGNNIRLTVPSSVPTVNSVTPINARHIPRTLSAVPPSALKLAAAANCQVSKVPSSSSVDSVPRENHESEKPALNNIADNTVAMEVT
UniProt Q9H2F5, 1-581: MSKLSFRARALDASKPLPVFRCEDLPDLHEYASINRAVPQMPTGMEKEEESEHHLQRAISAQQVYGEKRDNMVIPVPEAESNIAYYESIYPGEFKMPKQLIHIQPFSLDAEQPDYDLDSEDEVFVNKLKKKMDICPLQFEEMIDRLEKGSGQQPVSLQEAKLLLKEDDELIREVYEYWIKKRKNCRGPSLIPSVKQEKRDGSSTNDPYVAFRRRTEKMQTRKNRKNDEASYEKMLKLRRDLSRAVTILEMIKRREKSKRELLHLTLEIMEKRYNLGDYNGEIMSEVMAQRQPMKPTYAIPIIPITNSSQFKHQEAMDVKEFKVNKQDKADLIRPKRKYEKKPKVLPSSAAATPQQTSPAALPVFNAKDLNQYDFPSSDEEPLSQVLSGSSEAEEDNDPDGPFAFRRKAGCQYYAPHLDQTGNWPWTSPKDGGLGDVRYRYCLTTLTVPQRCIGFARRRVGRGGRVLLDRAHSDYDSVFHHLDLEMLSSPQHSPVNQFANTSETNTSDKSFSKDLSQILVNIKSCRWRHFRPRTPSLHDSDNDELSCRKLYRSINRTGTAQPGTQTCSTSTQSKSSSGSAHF
UniProt O35144, whole entry: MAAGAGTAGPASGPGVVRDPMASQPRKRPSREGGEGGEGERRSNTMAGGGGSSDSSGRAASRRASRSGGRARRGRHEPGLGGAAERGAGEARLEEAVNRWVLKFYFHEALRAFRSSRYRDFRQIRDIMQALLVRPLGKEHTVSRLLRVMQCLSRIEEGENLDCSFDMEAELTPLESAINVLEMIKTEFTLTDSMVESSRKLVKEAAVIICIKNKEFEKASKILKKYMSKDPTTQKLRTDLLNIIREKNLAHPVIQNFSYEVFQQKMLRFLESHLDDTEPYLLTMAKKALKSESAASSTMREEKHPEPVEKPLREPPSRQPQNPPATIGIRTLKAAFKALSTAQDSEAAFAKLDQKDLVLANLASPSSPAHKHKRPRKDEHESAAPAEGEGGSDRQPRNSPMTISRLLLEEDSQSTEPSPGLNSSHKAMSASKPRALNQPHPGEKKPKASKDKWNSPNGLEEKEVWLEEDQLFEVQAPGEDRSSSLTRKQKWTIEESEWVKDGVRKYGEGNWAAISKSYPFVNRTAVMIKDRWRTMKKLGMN
UniProt Q8CHK4, whole entry: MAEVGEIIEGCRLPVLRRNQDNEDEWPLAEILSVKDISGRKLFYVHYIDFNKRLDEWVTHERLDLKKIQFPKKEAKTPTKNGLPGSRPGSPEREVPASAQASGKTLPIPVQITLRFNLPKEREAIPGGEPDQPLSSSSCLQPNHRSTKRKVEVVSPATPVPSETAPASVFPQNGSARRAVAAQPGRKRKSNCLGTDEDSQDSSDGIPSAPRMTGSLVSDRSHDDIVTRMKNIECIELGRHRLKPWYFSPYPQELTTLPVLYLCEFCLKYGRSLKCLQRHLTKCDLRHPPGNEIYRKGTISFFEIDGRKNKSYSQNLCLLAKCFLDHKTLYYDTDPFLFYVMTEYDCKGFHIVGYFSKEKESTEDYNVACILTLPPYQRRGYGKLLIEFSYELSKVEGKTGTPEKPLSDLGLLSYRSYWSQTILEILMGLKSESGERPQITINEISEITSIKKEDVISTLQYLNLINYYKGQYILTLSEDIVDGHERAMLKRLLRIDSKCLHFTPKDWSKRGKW
UniProt Q8C0I4, whole entry: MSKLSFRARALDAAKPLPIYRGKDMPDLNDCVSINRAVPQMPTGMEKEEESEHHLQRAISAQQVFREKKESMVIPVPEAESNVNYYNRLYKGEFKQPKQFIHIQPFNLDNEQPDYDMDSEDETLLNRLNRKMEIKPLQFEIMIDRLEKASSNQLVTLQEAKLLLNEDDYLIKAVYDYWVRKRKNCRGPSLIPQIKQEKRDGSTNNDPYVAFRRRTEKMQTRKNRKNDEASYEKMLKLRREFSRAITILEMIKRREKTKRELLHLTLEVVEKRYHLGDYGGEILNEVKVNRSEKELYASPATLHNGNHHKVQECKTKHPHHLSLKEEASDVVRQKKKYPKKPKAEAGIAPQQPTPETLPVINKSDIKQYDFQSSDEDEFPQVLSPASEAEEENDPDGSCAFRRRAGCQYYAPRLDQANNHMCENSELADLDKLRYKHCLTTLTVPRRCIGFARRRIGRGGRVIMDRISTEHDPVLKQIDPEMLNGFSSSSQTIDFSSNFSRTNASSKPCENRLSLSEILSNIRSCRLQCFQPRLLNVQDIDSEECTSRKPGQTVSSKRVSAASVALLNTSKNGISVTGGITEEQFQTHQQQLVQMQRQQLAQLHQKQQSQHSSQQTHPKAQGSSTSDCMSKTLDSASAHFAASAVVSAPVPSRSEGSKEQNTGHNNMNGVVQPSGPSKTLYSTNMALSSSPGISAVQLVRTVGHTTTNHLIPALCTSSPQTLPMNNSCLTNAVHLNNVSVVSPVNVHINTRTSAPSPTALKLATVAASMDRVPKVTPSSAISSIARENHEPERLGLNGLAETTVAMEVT

B1: His-RAP1 (protein, UniProt Q9NYB0 1-399)
chain: MAEAMDLGKDPNGPTHSSTLFVRDDGSSMSFYVRPSPAKRRLSTLILHGGGTVCRVQEPGAVLLAQPGEALAEASGDFISTQYILDCVERNERLELEAYRLGPASAADTGSEAKPGALAEGAAEPEPQRHAGRIAFTDADDVAILTYVKENARSPSSVTGNALWKAMEKSSLTQHSWQSLKDRYLKHLRGQEHKYLLGDAPVSPSSQKLKRKAEEDPEAADSGEPQNKRTPDLPEEEYVKEEIQENEEAVKKMLVEATREFEEVVVDESPPDFEIHITMCDDDPPTPEEDSETQPDEEEEEEEEKVSQPEVGAAIKIIRQLMEKFNLDLSTVTQAFLKNSGELEATSAFLASGQRADGYPIWSRQDDIDLQKDDEDTREALVKKFGAQNVARRIEFRKK

Assays:
[1] = molecular target: HA-Rap1-I312R (mouse) (UniProt Q91VL8); assay: co-IP
[2] = molecular target: Flag-Epc1 (mouse) (UniProt Q8C9X6); assay: co-IP
[3] = molecular target: GST-tagged EPC1 (aa 1-581) (UniProt Q9H2F5); assay: pull-down

Molecule	binding [1]	binding [2]	other results
Myc-Epc1 (pCMV6-MCS-Myc-Flag, Origene) (from UniProt Q8C9X6 1-813)	binds		
Myc-TRF2 (from UniProt O35144 1-541)		no binding	
Myc-Tip60 (pLPC-N-Myc) (from UniProt Q8CHK4 1-513)		binds	
Myc-Epc2 (pCMV6-MCS-Myc-Flag, Origene) (from UniProt Q8C0I4 1-808)	binds		
B1			binding [3]: binds
